# Results reported in the supplement of paper PMC7125110.
# ± gives the standard error. Many of these values have a large error.
# B1: glmS ribozyme (parent)
# chain: AUAAAAGCGCCAGAACUACAGAAAUGUAGUUGACGAGGAGGAGGUUUAUCGAAUUUUCGGCGGAUGCCUCCAAA
# Variants of: B1
# Assay: self-cleavage kobs at 640 uM GlcN6P; higher = faster cleavage; RNA array
# Conditions: with glucosamine-6-phosphate
# How it was run: (§1)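 Sequenced MiSeq chips were the platform: E. coli RNA polymerase transcribed barcoded ribozyme variants on them in situ, and a hybridised Cy3 probe tracked these at 37 °C. After glucosamine-6-phosphate (40 μM to 10 mM) in HEPES/KCl/Mg(OAc)2 buffer was flowed in, tiles were imaged over ~14 h. Signals normalised to baseline and to non-cleaving reference variants were reduced to per-tile medians and fit to one- or two-exponential decays to obtain kobs. kcat and KM were derived through weighted Michaelis–Menten fits across concentrations.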
row,Variant,self-cleavage kobs at 640 uM GlcN6P [s⁻¹]
1,U30C G51U C68U,5.27e-05 ± 3.5e-05
2,U30C U54A C68A,2.99e-05 ± 2.9e-05
3,U30C U56C,< 1e-05
4,U30C U56G C68G U69A,3.33e-05 ± 2.9e-05
5,U30G A39U G44C,2.77e-05 ± 2.8e-05
6,U30G A48U,2.45e-05 ± 1.3e-05
7,U30G C58G A64C C67G C71G,9.88e-05 ± 5.8e-05
8,U30G G41C,2.36e-05 ± 1.3e-05
9,U30G G66C,2.63e-05 ± 1.8e-05
10,U30G U49G U54A,2.92e-05 ± 2.1e-05
11,U30G U57A,2.88e-05 ± 2.3e-05
12,U31A A52U,2.58e-05 ± 1.7e-05
13,U31A G38U C67A,2.72e-05 ± 2.1e-05
14,U31A G62A U65C U69G,3.17e-05 ± 2.6e-05
15,U31C A52G C67U C71A,4.9e-05 ± 3.3e-05
16,U31C C34G G35U C68G,0.000664 ± 0.00033
17,U31C G38U C70G,7.51e-05 ± 4.6e-05
18,U31C G40U U47A,2.65e-05 ± 1.8e-05

# Given as tab-separated lines: entries from further up
row	Variant	self-cleavage kobs at 640 uM GlcN6P [s⁻¹]
11	U30G U57A	2.88e-05 ± 2.3e-05
12	U31A A52U	2.58e-05 ± 1.7e-05
13	U31A G38U C67A	2.72e-05 ± 2.1e-05

# Next records:

row,Variant,self-cleavage kobs at 640 uM GlcN6P [s⁻¹]
1,U31C U69G,2.58e-05 ± 2.2e-05
2,U31G A48C,1.83e-05 ± 1.6e-05
3,U31G G37U C68A,3.02e-05 ± 3e-05
4,U31G G59A C70G,3.54e-05 ± 1.9e-05
5,U31G G66U U69G,4.43e-05 ± 2.4e-05
6,U31G U49G C67G,3.88e-05 ± 2.4e-05
7,G32A U55A C68A,3.42e-05 ± 2.7e-05
8,G32C A36C G37C G62C U69G,5.17e-05 ± 2.6e-05
9,G32U A39U C67G,2.03e-05 ± 1.4e-05
10,G32U C58G C68A C70U,5.4e-05 ± 2.9e-05
11,G32U U57C C70U,3.59e-05 ± 2.5e-05
12,A33G A53U C68G,2.74e-05 ± 2.6e-05
13,A33G C50G G66A,3.71e-05 ± 2.7e-05
14,A33G C67G C70A,3.54e-05 ± 2.9e-05
15,A33U G37U C58U C61U C68U,4.69e-05 ± 3e-05
16,A33U U55A,1.35e-05 ± 7e-06
17,A33U U69A,3.26e-05 ± 2.6e-05
18,C34A A36G U69G C70G,4.12e-05 ± 2.2e-05

# Variants of: B1
# Assay: self-cleavage kobs at 2500 uM GlcN6P; higher = faster cleavage; RNA array
# Conditions: with glucosamine-6-phosphate
# How it was run: as §1
row,Variant,self-cleavage kobs at 2500 uM GlcN6P [s⁻¹]
1,U30G A39U G44C,2.4e-05 ± 1.9e-05
2,U30G C58G A64C C67G C71G,3.24e-05 ± 2e-05
3,U31G U49G C67G,2.46e-05 ± 1.8e-05
4,A33U G37U C58U C61U C68U,5.96e-05 ± 3.3e-05
5,C34A A36G U69G C70G,3.43e-05 ± 1.7e-05

# Variants of: B1
# Assay: self-cleavage kobs at 160 uM GlcN6P; higher = faster cleavage; RNA array
# Conditions: with glucosamine-6-phosphate
# How it was run: as §1
row,Variant,self-cleavage kobs at 160 uM GlcN6P [s⁻¹]
1,U31C U69G,2.18e-05 ± 2e-05
2,A33G C50G G66A,3.62e-05 ± 2.9e-05
3,C34A A36G U69G C70G,3.34e-05 ± 1.8e-05

# Variants of: B1
# Assay: self-cleavage kobs at 10000 uM GlcN6P; higher = faster cleavage; RNA array
# Conditions: with glucosamine-6-phosphate
# How it was run: as §1
row,Variant,self-cleavage kobs at 10000 uM GlcN6P [s⁻¹]
1,U31G G66U U69G,1.69e-05 ± 1.7e-05
2,G32A U55A C68A,2.87e-05 ± 2.1e-05
3,A33U U69A,2.1e-05 ± 1.3e-05
